Results are given in words; binding and its absence hold for the method and conditions named. In cells and extracts the contact can be indirect. These calls come from enrichment with a bait or labelling near it, and not all partners need be listed.

Protein sequences, listed by entry. Tags and fused reporters are not part of them.
UniProt Q02248: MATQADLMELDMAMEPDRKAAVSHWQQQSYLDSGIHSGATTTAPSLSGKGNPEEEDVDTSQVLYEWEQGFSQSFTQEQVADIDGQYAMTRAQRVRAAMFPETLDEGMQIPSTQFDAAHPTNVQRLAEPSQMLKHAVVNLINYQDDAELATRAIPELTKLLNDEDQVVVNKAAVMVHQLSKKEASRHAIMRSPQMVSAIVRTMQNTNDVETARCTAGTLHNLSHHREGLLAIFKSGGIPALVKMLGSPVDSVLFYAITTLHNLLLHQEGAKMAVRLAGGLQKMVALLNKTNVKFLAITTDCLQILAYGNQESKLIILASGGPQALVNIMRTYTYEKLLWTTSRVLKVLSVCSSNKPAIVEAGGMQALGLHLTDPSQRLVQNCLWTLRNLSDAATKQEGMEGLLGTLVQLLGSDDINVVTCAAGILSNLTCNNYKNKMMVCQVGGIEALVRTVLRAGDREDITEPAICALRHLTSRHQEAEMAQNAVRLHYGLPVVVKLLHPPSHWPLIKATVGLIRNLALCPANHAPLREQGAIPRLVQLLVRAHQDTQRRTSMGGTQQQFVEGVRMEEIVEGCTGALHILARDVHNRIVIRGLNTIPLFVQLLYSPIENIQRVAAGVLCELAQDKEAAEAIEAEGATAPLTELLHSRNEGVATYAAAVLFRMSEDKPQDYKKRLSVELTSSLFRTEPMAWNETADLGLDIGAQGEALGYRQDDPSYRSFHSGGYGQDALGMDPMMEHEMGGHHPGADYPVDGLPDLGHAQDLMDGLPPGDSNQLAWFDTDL
UniProt Q80X90: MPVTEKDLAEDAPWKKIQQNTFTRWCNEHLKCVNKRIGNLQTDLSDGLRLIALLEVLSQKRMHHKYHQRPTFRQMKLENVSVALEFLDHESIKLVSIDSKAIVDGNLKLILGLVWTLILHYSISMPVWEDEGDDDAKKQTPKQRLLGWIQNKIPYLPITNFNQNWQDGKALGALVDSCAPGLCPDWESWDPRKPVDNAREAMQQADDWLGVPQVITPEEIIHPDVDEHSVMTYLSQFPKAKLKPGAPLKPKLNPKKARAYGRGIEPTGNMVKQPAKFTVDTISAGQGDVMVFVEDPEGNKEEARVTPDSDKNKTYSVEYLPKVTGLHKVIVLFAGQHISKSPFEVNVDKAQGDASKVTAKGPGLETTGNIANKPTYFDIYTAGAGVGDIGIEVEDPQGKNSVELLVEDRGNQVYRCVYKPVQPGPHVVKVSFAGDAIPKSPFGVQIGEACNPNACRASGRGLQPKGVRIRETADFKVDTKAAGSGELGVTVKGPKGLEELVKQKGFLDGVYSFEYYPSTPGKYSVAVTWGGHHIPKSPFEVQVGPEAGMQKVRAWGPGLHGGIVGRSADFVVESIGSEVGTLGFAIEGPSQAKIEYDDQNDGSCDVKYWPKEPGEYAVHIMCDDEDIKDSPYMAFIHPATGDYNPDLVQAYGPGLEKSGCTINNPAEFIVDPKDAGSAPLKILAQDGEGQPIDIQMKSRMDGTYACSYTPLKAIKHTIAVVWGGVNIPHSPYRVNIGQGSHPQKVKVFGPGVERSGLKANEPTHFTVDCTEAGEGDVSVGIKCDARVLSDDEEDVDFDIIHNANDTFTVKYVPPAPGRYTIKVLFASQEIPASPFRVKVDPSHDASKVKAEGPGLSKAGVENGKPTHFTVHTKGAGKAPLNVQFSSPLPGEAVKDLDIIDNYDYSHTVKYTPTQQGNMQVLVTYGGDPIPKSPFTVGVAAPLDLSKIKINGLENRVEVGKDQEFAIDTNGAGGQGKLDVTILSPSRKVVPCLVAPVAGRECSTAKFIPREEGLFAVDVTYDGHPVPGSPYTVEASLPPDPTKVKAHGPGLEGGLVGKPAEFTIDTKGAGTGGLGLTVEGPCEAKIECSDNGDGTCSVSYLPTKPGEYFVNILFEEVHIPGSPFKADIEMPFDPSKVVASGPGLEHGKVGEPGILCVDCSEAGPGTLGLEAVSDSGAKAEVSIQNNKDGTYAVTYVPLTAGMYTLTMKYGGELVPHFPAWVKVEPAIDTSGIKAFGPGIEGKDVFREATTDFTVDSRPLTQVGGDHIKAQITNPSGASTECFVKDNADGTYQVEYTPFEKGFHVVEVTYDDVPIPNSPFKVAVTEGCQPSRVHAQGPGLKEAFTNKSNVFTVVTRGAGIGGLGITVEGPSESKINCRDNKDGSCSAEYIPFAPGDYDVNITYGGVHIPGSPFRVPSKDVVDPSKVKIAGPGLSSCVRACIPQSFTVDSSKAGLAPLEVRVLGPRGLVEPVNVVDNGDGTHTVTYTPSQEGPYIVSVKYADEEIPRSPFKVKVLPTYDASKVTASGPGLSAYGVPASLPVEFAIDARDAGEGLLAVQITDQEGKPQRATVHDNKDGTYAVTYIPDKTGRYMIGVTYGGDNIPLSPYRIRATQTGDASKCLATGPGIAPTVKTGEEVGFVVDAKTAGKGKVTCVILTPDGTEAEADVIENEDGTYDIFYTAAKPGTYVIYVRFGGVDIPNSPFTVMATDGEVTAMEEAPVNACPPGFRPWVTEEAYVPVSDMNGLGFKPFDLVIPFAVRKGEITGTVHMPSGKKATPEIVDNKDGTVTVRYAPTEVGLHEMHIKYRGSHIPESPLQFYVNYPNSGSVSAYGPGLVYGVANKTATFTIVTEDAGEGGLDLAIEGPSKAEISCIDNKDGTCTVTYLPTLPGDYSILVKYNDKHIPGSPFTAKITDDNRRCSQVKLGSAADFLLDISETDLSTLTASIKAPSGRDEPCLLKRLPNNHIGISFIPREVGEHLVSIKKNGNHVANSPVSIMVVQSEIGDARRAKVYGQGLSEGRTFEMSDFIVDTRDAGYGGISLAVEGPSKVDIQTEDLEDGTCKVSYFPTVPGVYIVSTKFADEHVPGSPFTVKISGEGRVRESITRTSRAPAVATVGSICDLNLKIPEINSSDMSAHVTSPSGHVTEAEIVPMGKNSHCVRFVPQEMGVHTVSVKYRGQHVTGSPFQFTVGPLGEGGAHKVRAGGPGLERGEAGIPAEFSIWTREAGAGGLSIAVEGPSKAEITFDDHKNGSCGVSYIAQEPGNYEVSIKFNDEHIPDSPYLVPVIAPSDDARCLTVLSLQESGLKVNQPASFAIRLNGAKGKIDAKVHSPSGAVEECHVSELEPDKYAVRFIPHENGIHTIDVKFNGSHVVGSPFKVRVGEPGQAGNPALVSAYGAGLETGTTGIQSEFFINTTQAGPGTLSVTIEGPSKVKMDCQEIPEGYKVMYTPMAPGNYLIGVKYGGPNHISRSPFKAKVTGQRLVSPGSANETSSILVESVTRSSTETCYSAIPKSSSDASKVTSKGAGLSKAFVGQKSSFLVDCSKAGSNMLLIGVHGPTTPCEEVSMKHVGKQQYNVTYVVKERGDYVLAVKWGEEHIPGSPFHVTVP

Experimental findings from publication PMC8880992 are described below.

The experiment addresses T1, endogenous Mks1 of mIMCD3 cells (mouse (endogenous in mIMCD3)) (UniProt Q5SW45).
T1 sequence: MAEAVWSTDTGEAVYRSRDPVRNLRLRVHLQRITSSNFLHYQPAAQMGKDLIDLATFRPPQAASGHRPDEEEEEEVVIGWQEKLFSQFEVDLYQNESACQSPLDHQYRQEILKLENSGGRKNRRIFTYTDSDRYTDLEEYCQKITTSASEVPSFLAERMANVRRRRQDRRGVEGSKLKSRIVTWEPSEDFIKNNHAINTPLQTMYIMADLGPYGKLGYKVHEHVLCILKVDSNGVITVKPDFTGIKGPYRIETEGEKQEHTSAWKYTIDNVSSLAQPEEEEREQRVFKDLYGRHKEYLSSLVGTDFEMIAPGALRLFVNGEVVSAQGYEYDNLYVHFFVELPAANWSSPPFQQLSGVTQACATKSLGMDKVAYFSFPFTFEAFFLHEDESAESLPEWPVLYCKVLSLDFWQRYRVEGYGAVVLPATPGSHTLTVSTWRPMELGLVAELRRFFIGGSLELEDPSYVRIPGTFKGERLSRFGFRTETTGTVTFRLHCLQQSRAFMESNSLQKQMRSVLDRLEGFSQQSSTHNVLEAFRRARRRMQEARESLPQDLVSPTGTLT
Briefly: affinity purification with mass spectrometry; anti-MKS1 immunoprecipitation from shScr and shUbe2e1 mIMCD3 cells (proliferating, ciliated, undergoing ciliary resorption); LC-MS/MS.

“endogenous β-catenin of mIMCD3 cells (from UniProt Q02248 1-781)”: the binding entry was “binds”. As for “filamin B (Flnb) of mIMCD3 cells (from UniProt Q80X90 1-2602)”, the binding result was “binds”.
